According to PubChem BioAssay AID1347076 (National Center for Advancing Translational Sciences (NCATS), 2019):
Hit rate of the full screen: of about 400,000 compounds, about 13,000 (3.2%) were called active. Inconclusive means that the source gave no clear call. Such entries were picked first, then a sample of the others. Calls come from the whole dose curve; as a rule, active = well fitted cell-killing curve with a large enough effect; inconclusive = small, poorly fitted or top-dose-only effect, or effect the other way; inactive = flat fitted curve, though single readings scatter. Where the call is inconclusive, the potency comes from a doubtful curve fit.

Experiment: qHTS assay for MDR1-selective chemotherapeutics: Primary screen using the drug-selected MDR subline cells KB-V1; note: nearly all actives have a fitted effect of over 60% in size
Settings: KB-V1 MDR cells viability, CellTiter-Glo, 72 h; series mostly up to 46.1 µM
Summary of the method: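 Readout: CellTiter-Glo luminescence, 10 min after addition. Cells: KB-V1 MDR subline, 72 h at 37 degrees C with compound. Analysis: corrected, normalized data fitted to concentration-effect curves.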
Potency is the fitted concentration of half-maximal effect.

| SMILES | Potency |
| --- | --- |
| COc1ccc(CCNC(=O)c2[nH]c(C)c(C(C)=O)c2C)cc1OC | inactive |
| O=c1[nH]c(COc2ccc(Cl)cc2Br)nc2ccccc12 | inconclusive: 25.9 µM [cytotoxic, partial curve, poor fit] |
| COc1cc(NC(=O)c2cc3ccccc3cc2O)c(OC)cc1Cl | inconclusive: 29.1 µM [cytotoxic, single point] |
| CCOc1ccc(-n2c(SCC(=O)Nc3cc(C)on3)nc3c(c2=O)SCC3)cc1 | inactive |
| CN1/C(=C\C(=O)CSc2ncn[nH]2)C(C)(C)c2ccccc21 | inconclusive: 16.4 µM [cytotoxic, single point] |
| CCOc1ccc(C(=O)Cc2cc(OC)c(OC)cc2[N+](=O)[O-])cc1 | inactive |
| CSc1cccc(NC(=O)C2CCCN(c3ncnc4c3nc3n4CCCCC3)C2)c1 (stereo not drawn) | active: 14.6 µM |
| CC(=O)c1cccc(NS(=O)(=O)N(C)C)c1 | inconclusive: 14.6 µM [rising, partial curve, poor fit] |
| CCCCOc1ccc(NC(=O)Nc2nnc(C)s2)cc1 | inactive |
| COc1cc(/C=C/C(=O)OCC(=O)NNC(=O)c2cc(Cl)ccc2OC)ccc1O | inactive |
| Cc1cccc(OCCCCn2c(C3CC(=O)N(c4ccccc4Cl)C3)nc3ccccc32)c1 (stereo not drawn) | inactive |
| COc1ccc(S(=O)(=O)NCCc2sc(C)nc2C)cc1F | active: 16.4 µM |
| CCOC(=O)c1c(C)[nH]c(C(=O)C(C)OC(=O)c2cccc(OCc3c(C)noc3C)c2)c1C (stereo not drawn) | inactive |
| O=C(NC1CCCC1)C(=O)N(c1ccccc1F)C(C(=O)NCC1CCCO1)c1cccs1 (stereo not drawn) | inactive |
| Cc1c(C(=O)OCC(=O)N(C)c2ccccc2)cccc1[N+](=O)[O-] | inconclusive: 16.4 µM [cytotoxic, partial curve, poor fit] |
| O=C(Nc1ccc(N2CCN(C(=O)c3ccco3)CC2)cc1)C(c1ccccc1)c1ccccc1 | inconclusive: 18.4 µM [cytotoxic, partial curve] |
| COCc1cc(C)nc2sc(C(=O)Nc3ccc(C(=O)OC)cc3)c(N)c12 | inactive |
| O=C(CC[C@H]1O[C@@H](n2ccc(=O)[nH]c2=O)[C@H](O)[C@@H]1O)N[C@@H](Cc1ccccc1)C(=O)NCC1CCCO1 (stereo partly drawn) | active: 7.31 µM |
| COC(=O)c1cn(CCOc2ccc(C)cc2)c2ccccc12 | inconclusive: 5.8 µM [cytotoxic, partial curve] |
| CCOc1ccc(N=Cc2ccc3ccccc3c2)cc1 | inconclusive: 29.1 µM [rising, single point] |
| CC1CN(C(=S)SCCN2C(=O)CCC2=O)CC(C)O1 (stereo not drawn) | inconclusive: 29.1 µM [rising, single point] |
| O=C1c2ccccc2C(=O)N1CCc1c[nH]c2ccccc12 | inconclusive: 18.4 µM [cytotoxic, single point] |
| CC(Sc1nnc2c(n1)C1CCC2(C)C1(C)C)C(=O)Nc1ccccc1 (stereo not drawn) | active: 20.6 µM |
| Cc1ccc(CN(C(=O)c2ccco2)C(C(=O)NC2CCCC2)c2cccnc2)cc1 (stereo not drawn) | inactive |
| CCN1C(=O)c2ccccc2Sc2ccc(NC(=O)COc3ccc(Cl)cc3)cc21 | inactive |

| SMILES | Potency |
| --- | --- |
| CCOC(=O)N1CCN(C(=O)c2ccc(CN(c3ccc(C)c(C)c3)S(C)(=O)=O)cc2)CC1 | inconclusive: 25.9 µM [cytotoxic, single point] |
| COc1ccc(/C=C/C(=O)NCCN=C2NS(=O)(=O)c3ccccc32)cc1 | inactive |
| Nc1ncnc2c1C1(CCCCC1)Cc1ccccc1-2 | active: 23.1 µM |
| O=C(CSc1n[nH]c(=O)n1-c1cccnc1)Nc1ccccc1 | inconclusive: 29.1 µM [rising, single point] |
| CN1CCN(c2ncc3c(n2)CCN(Cc2cc(Br)cs2)C3)CC1 | inactive |
| CN(C)S(=O)(=O)N1CCC(Oc2cccc(C(=O)NC3CCCCCC3)c2)CC1 | active: 1.3 µM |
| C=CCSC1=C(C#N)C(c2ccccc2Cl)C(C(=O)c2cccs2)C(O)(C(F)(F)F)N1 (stereo not drawn) | active: 16.4 µM |
| CCN(CCO)C(=O)CC(c1ccccc1)c1cc(Br)ccc1O (stereo not drawn) | inconclusive: 23.1 µM [cytotoxic, partial curve, poor fit] |
| CCOc1ccc(-n2c(SCC(=O)Nc3cccc(Cl)c3)nc3c(oc4ccccc43)c2=O)cc1 | inactive |
| O=C(Nc1cc(S(=O)(=O)N2CCCCC2)ccc1Cl)C1COc2ccccc2O1 (stereo not drawn) | active: 14.6 µM |
| O=C(Cn1cnc2c(NCc3ccccc3)ncnc21)NCCCN1CCCC1=O | inconclusive: 18.4 µM [rising, partial curve, poor fit] |
| Cn1ccnc1COc1ccc(C=O)cc1 | inconclusive: 29.1 µM [rising, single point] |
| O=C(NC1CCNCC1)C1CCCCC1 | inactive |
| O=C(Nc1cccc(Cl)c1Cl)C1CCN(C(=O)c2cccs2)CC1 | inactive |
| c1cc2[nH]snc2c2nc(C3CC3)nc12 | inconclusive: 23.1 µM [cytotoxic, partial curve, poor fit] |
| Cn1cnc(Sc2ncnc3nc[nH]c23)c1[N+](=O)[O-] | inconclusive: 2.59 µM [cytotoxic, full curve] |
| CCn1c(SCC(=O)Nc2ccc(N(C)C)cc2)nnc1-c1ccco1 | inconclusive: 16.4 µM [cytotoxic, single point] |
| O=S(=O)(C/C(=C/CO)S(=O)(=O)c1ccccc1)c1ccccc1 | inconclusive: 20.6 µM [cytotoxic, single point] |
| O=C(/C=C/c1ccccc1)Nc1ccc2c(c1)OCCO2 | inactive |
| O=C(Nc1cccc(Cl)c1)Nc1ccc(Br)cc1F | active: 20.6 µM |
| O=C(NC1CCN(Cc2ccccc2)CC1)c1cccc(S(=O)(=O)Nc2ccc(F)cc2)c1 | inactive |
| CCCCNS(=O)(=O)c1ccc2nc(SCC(=O)Nc3cccc(F)c3)[nH]c2c1 | inconclusive: 18.4 µM [cytotoxic, single point] |
| COC(CNC(=O)c1cn(C)c2ccc(S(=O)(=O)N(C)C3CCCCC3)cc2c1=O)OC | inactive |
| COc1ccc(NC(=O)CCCNC(=O)c2ccc(Cl)cc2)cc1S(=O)(=O)N1CCCCC1 | inactive |
| CCOC(=O)c1c(NC(=O)CCS(=O)(=O)c2ccccc2)sc2c1CC(C)(C)NC2(C)C | inconclusive: 23.1 µM [cytotoxic, partial curve, poor fit] |

| SMILES | Potency |
| --- | --- |
| CC1=C(C(=O)Nc2ccc(Cl)cc2)C(c2ccccc2C)n2ncc(C(=O)Nc3ccc(C)cc3)c2N1 (stereo not drawn) | inconclusive: 23.1 µM [cytotoxic, single point] |
| CC(NS(=O)(=O)c1ccc(Br)cc1)C(N)=O (stereo not drawn) | inconclusive: 18.4 µM [cytotoxic, single point] |
| O=C(NC1CCCCC1)C1CCN(C(=O)c2ccc(-c3ccccc3)cc2)CC1 | inconclusive: 9.2 µM [cytotoxic, partial curve] |
| COc1ccccc1C(=O)NC1CCN(C(=S)NCCc2ccccc2)CC1 | inconclusive: 6.51 µM [cytotoxic, partial curve] |
| Cc1cccc(NC(=O)c2cc([N+](=O)[O-])ccc2NCC2CCCO2)n1 (stereo not drawn) | inconclusive: 18.4 µM [cytotoxic, partial curve] |
| COc1cccc(C(=O)NCCSc2c(C)[nH]c3ccccc23)c1OC | inconclusive: 29.1 µM [cytotoxic, single point] |
| CCOc1cccc(C(=O)NC2CCCCC2)c1 | inconclusive: 20.6 µM [cytotoxic, single point] |
| COc1ccc(C[C@H]2CN3C(=NC[C@@H]3C(C)C)N2C[C@H](C)NC(=O)c2ccc(C)c(Br)c2)cc1 | inactive |
| Cc1nc2sc3c(c2c(=O)n1NC(=O)CCl)CCCC3 | inconclusive: 25.9 µM [cytotoxic, single point] |
| COc1ccc(CCNC(=O)Cc2nn(C)c(=O)c3ccccc23)cc1OC | inactive |
| Cc1nc(-c2ccc(F)cc2)c(CC(=O)N(C)CC(=O)Nc2ccccc2C(F)(F)F)s1 | inconclusive: 18.4 µM [cytotoxic, single point] |
| O=C(NCc1nc2ccccc2[nH]1)c1ccc(S(=O)(=O)N2CCOCC2)cc1 | inconclusive: 14.6 µM [rising, single point] |
| O=C(O)C1CCN(S(=O)(=O)c2ccc(N3CCCC3C(=O)O)c([N+](=O)[O-])c2)CC1 (stereo not drawn) | inactive |
| N#Cc1ccc(-c2cccs2)nc1SCc1c(F)cccc1Cl | inconclusive: 2.31 µM [cytotoxic, partial curve, poor fit] |
| CCOC(=O)C1(CC2CCCCO2)CCN(Cc2nccn2-c2ccc(OC)cc2)CC1 (stereo not drawn) | inconclusive: 16.4 µM [cytotoxic, single point] |
| O=C(CN1C(=O)/C(=C\c2ccc(F)cc2)Oc2ccccc21)N1CCN(c2ccccn2)CC1 | active: 7.31 µM |
| Cc1ccccc1OCC(=O)OCC(=O)c1ccc(-c2ccccc2)cc1 | inactive |
| COc1ccc(C(=O)NCCc2cnc[nH]2)cc1OC | inconclusive: 20.6 µM [rising, single point] |
| CC(=O)Nc1c([N+](=O)[O-])cc2c3c(cccc13)CC2 | inactive |
| CC(C)OCCCNc1ncnc2c1[nH]c1ccc(F)cc12 | inconclusive: 20.6 µM [cytotoxic, partial curve, poor fit] |
| COc1cc(/C=C2/SC(=O)N(CC(=O)N3CCCC3)C2=O)ccc1Oc1ccc([N+](=O)[O-])cn1 | inconclusive: 10.3 µM [cytotoxic, partial curve, poor fit] |
| CCOC(=O)c1ccc(NC(=S)NCCC2=CCCCC2)cc1 | inconclusive: 32.6 µM [cytotoxic, single point] |
| CCCNC(=S)Nc1cc2oc3ccccc3c2cc1OC | inactive |

Single entries from above.
`O=C(O)C1CCN(S(=O)(=O)c2ccc(N3CCCC3C(=O)O)c([N+](=O)[O-])c2)CC1` (stereo not drawn) – Potency: inactive
`COc1ccc(C(=O)NCCc2cnc[nH]2)cc1OC` – Potency: inconclusive: 20.6 µM [rising, single point]
`Cc1ccccc1OCC(=O)OCC(=O)c1ccc(-c2ccccc2)cc1` – Potency: inactive
`COc1cc(/C=C2/SC(=O)N(CC(=O)N3CCCC3)C2=O)ccc1Oc1ccc([N+](=O)[O-])cn1` – Potency: inconclusive: 10.3 µM [cytotoxic, partial curve, poor fit]
`CC1=C(C(=O)Nc2ccc(Cl)cc2)C(c2ccccc2C)n2ncc(C(=O)Nc3ccc(C)cc3)c2N1` (stereo not drawn) – Potency: inconclusive: 23.1 µM [cytotoxic, single point]
